Hit rate of the full screen: of about 320,000 compounds, about 2,100 (0.66%) were called active. Inconclusive means that the source gave no clear call. Such entries were picked first, then a sample of the others. The call rests on the fitted dose curve; in most records, active means well fitted inhibition curve with a large enough effect in the signal ratio, with a control signal flat (not every such curve was filed as active); inconclusive means small, poorly fitted or top-dose-only effect, or effect the other way, or a change in a side signal; inactive means flat fitted curve, though single readings scatter; the % refers to the signal ratio. Where the call is inconclusive, the potency comes from a doubtful curve fit.
assay: qHTS Assay for Lipid Storage Modulators in Drosophila S3 Cells; conditions: BODIPY lipid droplet fluorescence, 18-24 h, cells fed with added oleic acid; lipid storage change, negative = inhibition: at 46.1 µM (top of the series) unless noted
How it was run: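 Drosophila S3 cells got compounds at several concentrations plus oleic acid (400 uM solution). Laser-scanning cytometry with 488 nm excitation read lipid droplets at 500-530 nm and cells at 575-640 nm. Percent activity was relative to 20 uM Triacsin C.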
On the % scale 0 is the no-effect control and ±100 the full control effect; potency means the concentration at half of the fitted maximal effect.

SMILES | Potency | lipid storage change, negative = inhibition
O=C1CN(C(=O)COc2ccc(Cl)cc2Cl)c2ccccc2N1 | inconclusive: 4.11 µM [activator, single point] | 
CCOc1ccc(NC(=S)c2ccc3ccccc3n2)cc1 | inconclusive: 25.9 µM [falling, single point] | 
O=C(COC(=O)c1ccc(O)cc1O)NC(=O)NCc1ccccc1 |  | inconclusive: -3.46%
CCOC(=O)c1c(C)[nH]c(C(=O)OCC(=O)Nc2ccc(Cl)cn2)c1C |  | inconclusive: -85.7%
Cc1cc(C)c(NC(=O)CNC(=O)c2ccccc2OCc2c(C)noc2C)c(C)c1 |  | inconclusive: 23.3%
CC(NC(=O)c1ccc2ccccc2n1)c1ccccc1 (configuration not stated) |  | inconclusive: -21.2%
COc1cccc(C2C(=O)c3ccccc3C2=O)c1 | inconclusive: 29.1 µM [cytotoxic, single point] | 
Cc1nc(Cl)cc(N/N=C/c2ccccc2)n1 | inconclusive: 29.1 µM [activator, single point] | 
CCCNC(=O)CN(c1ccc(F)cc1)S(=O)(=O)c1ccc2c(c1)OCCO2 |  | inconclusive: 10.4%
CCC(=O)N(C)CCc1cc2c(c(OC)c1/C=N/NC(=O)c1ccc(Br)cc1)OCO2 |  | inconclusive: 24.7%
CCOc1ccc(-c2cn(CCC#N)cn2)cc1 |  | inconclusive: 12.9%
CC(=O)Nc1ccc(NC(=O)COC(=O)c2ccc(C)s2)cc1 | inconclusive: 0.103 µM [falling, full curve, poor fit] | 
CNc1ccc([N+](=O)[O-])cc1 |  | inconclusive: 31.8%
Cn1ccc2cc(-c3ccc4ncnc(NCc5cccs5)c4c3)ccc21 |  | inconclusive: -25.6%
CC(C)N1CCC2(CC1)Oc1ccc(Br)cc1C1CC(c3cccnc3)=NN12 (configuration not stated) | inconclusive: 0.082 µM [activator, full curve, poor fit] | 
COc1ccc(S(=O)(=O)N2CCN(c3c(C)cccc3C)CC2)cc1OC |  | inconclusive: 0.162%
CCOC(=O)CON1C(=O)C(=O)N(OCC(=O)OCC)[C@H]2CCCC[C@H]21 |  | inconclusive: -22.2%
CCN(CCCNC(=O)c1nn(C)c2c1CS(=O)(=O)c1ccccc1-2)Cc1ccccc1 | inconclusive: 29.1 µM [rising, single point] | 
COc1ccc(-c2ccc(=O)n(CC(=O)NC3CCc4ccccc43)n2)cc1OC (configuration not stated) |  | inconclusive: -1.87%
CCOc1ccccc1CNC(=O)C1CCC(=O)N1C(C)C (configuration not stated) |  | inconclusive: -5.39%
Cc1c(NS(=O)(=O)c2ccc(NC(=O)CCC(=O)O)cc2)c(=O)n(-c2ccccc2)n1C | inconclusive: 0.058 µM [falling, full curve, poor fit] | 
CNC(=O)c1ccccc1NC(=O)c1cccc(S(=O)(=O)N2CCC(C)CC2)c1 | inconclusive: 0.092 µM [activator, full curve, poor fit] | 
O=C(O)CNS(=O)(=O)c1ccc2c(c1)CCCC2 |  | inconclusive: 40.1%
O=C(CSc1nncs1)Nc1nccs1 |  | inconclusive: 0.712%

SMILES | Potency | lipid storage change, negative = inhibition
CC(C)(C)n1ncc2c(=O)n(Cc3ccc(Cl)cc3)cnc21 | inconclusive: 6.51 µM [activator, single point] | 
CC(NC(=O)CN1C(=O)NC(Cc2ccccc2)(Cc2ccccc2)C1=O)C12CC3CC(CC(C3)C1)C2 (configuration not stated) | inconclusive: 0.146 µM [falling, full curve, poor fit] | 
COc1ccc2oc(C(=O)OCC(=O)NC3CCCCC3)c(C)c2c1 |  | inconclusive: 31.2%
COc1ccc(S(=O)(=O)NCC2CCC(C(=O)NCCC(C)C)CC2)cc1 (configuration not stated) |  | inconclusive: 12%
O=C(NCCNC(=O)c1ccccc1Br)c1ccccc1Br |  | inactive
COc1cc(/C=N\NC(=O)c2ccccc2F)ccc1Oc1ccc([N+](=O)[O-])cn1 |  | inconclusive: 37.1%
Cc1cccc(NC(=O)CSc2ncnc3nc[nH]c23)c1C | inconclusive: 5.8 µM [activator, single point] | 
Cc1ccc(CN2CCC(C(=O)Nc3cccc(-c4cccc(F)c4)c3)CC2)o1 | inconclusive: 29.1 µM [activator, single point] | 
Cc1ccc(S(=O)(=O)NC(C)CCc2ccccc2)cc1C(N)=O (configuration not stated) |  | inconclusive: -27.6%
CCOC(=O)CCC(NC(=O)c1ccc(NCN2C(=O)CCC2=O)cc1)C(=O)OCC (configuration not stated) |  | inconclusive: 10.6%
Cc1cc(NS(=O)(=O)c2ccc(NC(=O)c3cc4c(=O)n5ccccc5nc4s3)cc2)nc(C)n1 |  | inconclusive: -18% [at 9.22 µM]
COc1ccc(OC)c(Nc2nc3nonc3nc2N2CCCC(C)C2)c1 (configuration not stated) |  | inactive
Cc1ccccc1NC(=O)C(C)c1cccc(C(=O)c2ccccc2)c1 (configuration not stated) |  | inactive
Cn1c(C(=O)NCc2cccnc2)cc2sc(Cl)cc21 | inconclusive: 0.731 µM [activator, partial curve] | 
CCN(CC)c1nc(Nc2ccccc2)nc(Oc2ccc(=O)[nH]n2)n1 | inconclusive: 0.461 µM [activator, single point] | 
CCN1CCN(C(=O)c2cc3c(=O)oc4ccc(C)cc4c3s2)CC1 |  | inconclusive: 3.38%
COCCn1c(SCC(=O)NC(C)c2ccccc2)nc2ccccc21 (configuration not stated) | inconclusive: 6.51 µM [activator, partial curve] | 
CCOC(=O)N1CCN(C(=O)COc2ccc3ccccc3c2Br)CC1 | inconclusive: 6.51 µM [activator, partial curve] | 
C#Cc1ccc([C@@H]2C=C(C(=O)NCc3nc4ccccc4[nH]3)O[C@H](OCC)[C@H]2CCCO)cc1 |  | inconclusive: 11.4%
CCOC(=O)c1sc2ccc(S(=O)(=O)N3CCCCC3)cc2c1N |  | inconclusive: -10.3% [at 0.0737 µM]
N=c1c(C(=O)NCC2CCCO2)cc2c(=O)n3ccccc3nc2n1Cc1ccco1 (configuration not stated) | inconclusive: 4.11 µM [falling, single point] | 
CCn1c2ccccc2c2cc(N=C3SC(CC(=O)Nc4ccccc4OC)C(=O)N3CCOC)ccc21 (configuration not stated) |  | inconclusive: 34.9%
Nc1cc(S(=O)(=O)Nc2cc(Cl)ccc2Cl)ccc1N1CCOCC1 |  | inconclusive: 25.9%

Filtered by structure, the compounds so far with a halogen
SMILES | Potency | lipid storage change, negative = inhibition
O=C1CN(C(=O)COc2ccc(Cl)cc2Cl)c2ccccc2N1 | inconclusive: 4.11 µM [activator, single point] | 
CCOC(=O)c1c(C)[nH]c(C(=O)OCC(=O)Nc2ccc(Cl)cn2)c1C |  | inconclusive: -85.7%
Cc1nc(Cl)cc(N/N=C/c2ccccc2)n1 | inconclusive: 29.1 µM [activator, single point] | 
CCCNC(=O)CN(c1ccc(F)cc1)S(=O)(=O)c1ccc2c(c1)OCCO2 |  | inconclusive: 10.4%
CCC(=O)N(C)CCc1cc2c(c(OC)c1/C=N/NC(=O)c1ccc(Br)cc1)OCO2 |  | inconclusive: 24.7%
CC(C)N1CCC2(CC1)Oc1ccc(Br)cc1C1CC(c3cccnc3)=NN12 (configuration not stated) | inconclusive: 0.082 µM [activator, full curve, poor fit] | 
CC(C)(C)n1ncc2c(=O)n(Cc3ccc(Cl)cc3)cnc21 | inconclusive: 6.51 µM [activator, single point] | 
O=C(NCCNC(=O)c1ccccc1Br)c1ccccc1Br |  | inactive
COc1cc(/C=N\NC(=O)c2ccccc2F)ccc1Oc1ccc([N+](=O)[O-])cn1 |  | inconclusive: 37.1%
Cc1ccc(CN2CCC(C(=O)Nc3cccc(-c4cccc(F)c4)c3)CC2)o1 | inconclusive: 29.1 µM [activator, single point] | 
Cn1c(C(=O)NCc2cccnc2)cc2sc(Cl)cc21 | inconclusive: 0.731 µM [activator, partial curve] | 
CCOC(=O)N1CCN(C(=O)COc2ccc3ccccc3c2Br)CC1 | inconclusive: 6.51 µM [activator, partial curve] | 
Nc1cc(S(=O)(=O)Nc2cc(Cl)ccc2Cl)ccc1N1CCOCC1 |  | inconclusive: 25.9%

Reference: PubChem BioAssay AID2685 (National Center for Advancing Translational Sciences (NCATS), 2010)
